“And” between values parts separate entries of the source, which are not always exact repeats. Identical values can stand only once.

The experiment concerns Staphylococcus aureus. The experiment can be described thus: Antibacterial activity against Staphylococcus aureus ATCC 25923 assessed as inhibition of bacterial growth. Format: functional. Put shortly:
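Strains grown in ATCC-recommended media in culture tubes at 37 °C with shaking at 225 rpm for 3–8 h, back-diluted to about 10^6 cfu/mL, and incubated in triplicate in 384-well plates with a dilution series of test agent. DMSO vehicle served as negative control; linezolid (E. faecium) and ampicillin (S. aureus) were positive controls. MIC recorded.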

In general, MIC refers to the lowest concentration found to suppress growth. For the molecule `CC1(C)S[C@@H]2[C@H](NC(=O)[C@H](N)c3ccccc3)C(=O)N2[C@H]1C(=O)O` [AMPICILLIN], the MIC was 0.5 µg/mL and 1.4 µM.

(Values after ChEMBL document CHEMBL5120853, “Tolypocladamide H and the Proposed Tolypocladamide NRPS in Tolypocladium Species” (J Nat Prod, 2022).)
